These are yes or no findings as the source states them, for the method shown. In cells and extracts the contact can be indirect.
How the values were obtained:
[1] = biological target: Cerl-RasGAP ΔPH-C2 (UniProt P20936); assay: split reporter; BiFC with split cerulean (Cerf, Cerl) constructs cotransfected with pEYFP-C1 into 293T cells, fixed about 48 h later
[2] = biological target: EGFP-RasGAP ΔPH (UniProt P20936); assay: co-IP; merlin cotransfected with EGFP-RasGAP constructs in Sc4 cells (merlin-deficient)

Sequences of proteins named here, by UniProt entry; tags and fusion partners are left off. A change or cut given only in a name is not applied to a line headed by its entry.
UniProt P20936: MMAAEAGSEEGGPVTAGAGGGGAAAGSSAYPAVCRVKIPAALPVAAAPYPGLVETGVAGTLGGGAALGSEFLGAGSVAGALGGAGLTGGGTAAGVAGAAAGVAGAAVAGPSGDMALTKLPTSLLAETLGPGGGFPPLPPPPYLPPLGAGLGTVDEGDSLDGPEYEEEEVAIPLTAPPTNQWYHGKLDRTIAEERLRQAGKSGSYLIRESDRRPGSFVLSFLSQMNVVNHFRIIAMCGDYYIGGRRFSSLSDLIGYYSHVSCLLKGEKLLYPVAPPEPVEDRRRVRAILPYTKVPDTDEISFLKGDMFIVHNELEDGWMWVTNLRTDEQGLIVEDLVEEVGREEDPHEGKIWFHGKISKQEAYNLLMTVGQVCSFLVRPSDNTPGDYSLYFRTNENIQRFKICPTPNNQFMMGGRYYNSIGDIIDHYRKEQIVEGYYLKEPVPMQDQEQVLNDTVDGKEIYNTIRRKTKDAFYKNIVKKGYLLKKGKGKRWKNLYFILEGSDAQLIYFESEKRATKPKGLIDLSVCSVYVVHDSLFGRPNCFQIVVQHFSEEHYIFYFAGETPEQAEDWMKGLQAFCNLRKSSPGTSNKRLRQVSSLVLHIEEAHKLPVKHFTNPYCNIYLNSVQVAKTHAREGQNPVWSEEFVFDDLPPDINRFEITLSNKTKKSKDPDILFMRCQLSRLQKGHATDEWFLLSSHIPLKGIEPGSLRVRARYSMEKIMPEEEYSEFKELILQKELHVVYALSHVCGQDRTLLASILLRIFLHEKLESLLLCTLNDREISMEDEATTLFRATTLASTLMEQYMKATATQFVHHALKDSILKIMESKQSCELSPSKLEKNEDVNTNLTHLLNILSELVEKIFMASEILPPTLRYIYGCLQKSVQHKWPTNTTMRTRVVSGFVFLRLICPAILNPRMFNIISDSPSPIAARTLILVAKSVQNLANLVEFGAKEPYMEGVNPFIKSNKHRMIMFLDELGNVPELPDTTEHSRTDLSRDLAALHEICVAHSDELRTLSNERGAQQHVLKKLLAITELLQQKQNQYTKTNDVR
UniProt P35240: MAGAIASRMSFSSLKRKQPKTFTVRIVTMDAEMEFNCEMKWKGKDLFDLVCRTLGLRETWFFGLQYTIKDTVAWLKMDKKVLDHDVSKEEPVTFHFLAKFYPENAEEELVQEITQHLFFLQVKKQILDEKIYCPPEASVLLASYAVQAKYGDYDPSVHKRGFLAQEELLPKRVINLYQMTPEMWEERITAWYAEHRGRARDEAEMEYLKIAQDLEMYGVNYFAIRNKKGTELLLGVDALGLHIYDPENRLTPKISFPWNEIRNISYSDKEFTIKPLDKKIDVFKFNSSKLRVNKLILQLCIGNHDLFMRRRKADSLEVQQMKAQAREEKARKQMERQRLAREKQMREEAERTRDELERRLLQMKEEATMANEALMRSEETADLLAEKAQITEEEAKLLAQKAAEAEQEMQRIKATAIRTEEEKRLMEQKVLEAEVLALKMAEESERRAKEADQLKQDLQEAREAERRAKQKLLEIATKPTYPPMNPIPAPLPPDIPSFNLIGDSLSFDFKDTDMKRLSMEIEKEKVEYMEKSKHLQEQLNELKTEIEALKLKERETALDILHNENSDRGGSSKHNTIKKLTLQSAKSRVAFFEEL

| binding [1] | binding [2] | Substance |
| --- | --- | --- |
| no binding | – | Cerf-merlin (from UniProt P35240 1-595) |
| – | no binding | merlin cotransfected in Sc4 cells (from UniProt P35240 1-595) |

Reference: article PMC6756068
